# Results reported in the supplement of paper PMC10032668.
# Chains of the proteins cited; added tags and fusions are not shown.
# CCNT1, O60563, UniProt O60563, whole entry: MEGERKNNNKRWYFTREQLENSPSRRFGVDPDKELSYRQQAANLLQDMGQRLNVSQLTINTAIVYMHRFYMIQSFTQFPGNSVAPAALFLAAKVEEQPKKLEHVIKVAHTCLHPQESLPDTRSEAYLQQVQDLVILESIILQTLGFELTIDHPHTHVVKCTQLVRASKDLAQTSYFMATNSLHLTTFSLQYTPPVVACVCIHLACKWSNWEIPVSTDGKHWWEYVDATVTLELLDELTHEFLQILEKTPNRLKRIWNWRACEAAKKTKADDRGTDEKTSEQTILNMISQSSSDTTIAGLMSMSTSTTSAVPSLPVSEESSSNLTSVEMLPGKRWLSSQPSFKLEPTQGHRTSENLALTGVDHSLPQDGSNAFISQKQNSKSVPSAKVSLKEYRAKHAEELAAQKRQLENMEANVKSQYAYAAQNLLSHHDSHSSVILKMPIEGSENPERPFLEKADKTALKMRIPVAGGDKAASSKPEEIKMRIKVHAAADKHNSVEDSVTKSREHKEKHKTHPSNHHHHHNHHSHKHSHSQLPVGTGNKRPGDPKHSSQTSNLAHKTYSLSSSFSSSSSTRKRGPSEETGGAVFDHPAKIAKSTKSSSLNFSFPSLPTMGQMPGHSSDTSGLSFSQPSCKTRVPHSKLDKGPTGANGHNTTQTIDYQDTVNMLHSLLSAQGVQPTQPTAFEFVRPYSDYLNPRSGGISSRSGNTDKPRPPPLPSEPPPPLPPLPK
# CLPX, O76031, UniProt O76031, whole entry: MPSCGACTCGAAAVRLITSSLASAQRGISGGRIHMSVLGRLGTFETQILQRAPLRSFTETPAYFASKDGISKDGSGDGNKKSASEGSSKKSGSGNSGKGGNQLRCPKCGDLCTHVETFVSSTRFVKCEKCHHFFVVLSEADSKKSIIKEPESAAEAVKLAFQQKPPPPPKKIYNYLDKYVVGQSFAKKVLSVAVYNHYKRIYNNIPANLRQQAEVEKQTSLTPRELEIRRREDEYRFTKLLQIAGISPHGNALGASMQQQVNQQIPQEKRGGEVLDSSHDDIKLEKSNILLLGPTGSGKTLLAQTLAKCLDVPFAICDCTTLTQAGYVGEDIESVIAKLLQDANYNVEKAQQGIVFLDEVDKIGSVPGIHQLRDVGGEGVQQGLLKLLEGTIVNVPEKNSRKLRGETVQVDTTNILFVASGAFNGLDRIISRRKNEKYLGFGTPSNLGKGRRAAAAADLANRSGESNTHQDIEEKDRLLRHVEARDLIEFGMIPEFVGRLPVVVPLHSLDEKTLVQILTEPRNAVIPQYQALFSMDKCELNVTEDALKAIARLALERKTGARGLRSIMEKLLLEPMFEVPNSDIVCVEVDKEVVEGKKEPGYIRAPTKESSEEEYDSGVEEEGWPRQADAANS
# CNOT8, Q9UFF9, UniProt Q9UFF9, whole entry: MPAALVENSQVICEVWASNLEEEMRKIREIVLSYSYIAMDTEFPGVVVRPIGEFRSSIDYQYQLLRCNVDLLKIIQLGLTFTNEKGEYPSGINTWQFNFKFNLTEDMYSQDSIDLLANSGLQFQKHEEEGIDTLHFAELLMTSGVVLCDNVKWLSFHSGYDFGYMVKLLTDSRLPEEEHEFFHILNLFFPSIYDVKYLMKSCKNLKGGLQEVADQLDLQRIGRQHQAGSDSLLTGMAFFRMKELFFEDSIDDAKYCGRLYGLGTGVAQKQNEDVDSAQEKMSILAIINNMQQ
# COA4, Q9NYJ1, UniProt Q9NYJ1, whole entry: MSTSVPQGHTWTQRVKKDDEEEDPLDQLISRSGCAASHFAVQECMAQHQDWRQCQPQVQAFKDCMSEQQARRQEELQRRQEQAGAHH
# FLNB, O75369, UniProt O75369, whole entry: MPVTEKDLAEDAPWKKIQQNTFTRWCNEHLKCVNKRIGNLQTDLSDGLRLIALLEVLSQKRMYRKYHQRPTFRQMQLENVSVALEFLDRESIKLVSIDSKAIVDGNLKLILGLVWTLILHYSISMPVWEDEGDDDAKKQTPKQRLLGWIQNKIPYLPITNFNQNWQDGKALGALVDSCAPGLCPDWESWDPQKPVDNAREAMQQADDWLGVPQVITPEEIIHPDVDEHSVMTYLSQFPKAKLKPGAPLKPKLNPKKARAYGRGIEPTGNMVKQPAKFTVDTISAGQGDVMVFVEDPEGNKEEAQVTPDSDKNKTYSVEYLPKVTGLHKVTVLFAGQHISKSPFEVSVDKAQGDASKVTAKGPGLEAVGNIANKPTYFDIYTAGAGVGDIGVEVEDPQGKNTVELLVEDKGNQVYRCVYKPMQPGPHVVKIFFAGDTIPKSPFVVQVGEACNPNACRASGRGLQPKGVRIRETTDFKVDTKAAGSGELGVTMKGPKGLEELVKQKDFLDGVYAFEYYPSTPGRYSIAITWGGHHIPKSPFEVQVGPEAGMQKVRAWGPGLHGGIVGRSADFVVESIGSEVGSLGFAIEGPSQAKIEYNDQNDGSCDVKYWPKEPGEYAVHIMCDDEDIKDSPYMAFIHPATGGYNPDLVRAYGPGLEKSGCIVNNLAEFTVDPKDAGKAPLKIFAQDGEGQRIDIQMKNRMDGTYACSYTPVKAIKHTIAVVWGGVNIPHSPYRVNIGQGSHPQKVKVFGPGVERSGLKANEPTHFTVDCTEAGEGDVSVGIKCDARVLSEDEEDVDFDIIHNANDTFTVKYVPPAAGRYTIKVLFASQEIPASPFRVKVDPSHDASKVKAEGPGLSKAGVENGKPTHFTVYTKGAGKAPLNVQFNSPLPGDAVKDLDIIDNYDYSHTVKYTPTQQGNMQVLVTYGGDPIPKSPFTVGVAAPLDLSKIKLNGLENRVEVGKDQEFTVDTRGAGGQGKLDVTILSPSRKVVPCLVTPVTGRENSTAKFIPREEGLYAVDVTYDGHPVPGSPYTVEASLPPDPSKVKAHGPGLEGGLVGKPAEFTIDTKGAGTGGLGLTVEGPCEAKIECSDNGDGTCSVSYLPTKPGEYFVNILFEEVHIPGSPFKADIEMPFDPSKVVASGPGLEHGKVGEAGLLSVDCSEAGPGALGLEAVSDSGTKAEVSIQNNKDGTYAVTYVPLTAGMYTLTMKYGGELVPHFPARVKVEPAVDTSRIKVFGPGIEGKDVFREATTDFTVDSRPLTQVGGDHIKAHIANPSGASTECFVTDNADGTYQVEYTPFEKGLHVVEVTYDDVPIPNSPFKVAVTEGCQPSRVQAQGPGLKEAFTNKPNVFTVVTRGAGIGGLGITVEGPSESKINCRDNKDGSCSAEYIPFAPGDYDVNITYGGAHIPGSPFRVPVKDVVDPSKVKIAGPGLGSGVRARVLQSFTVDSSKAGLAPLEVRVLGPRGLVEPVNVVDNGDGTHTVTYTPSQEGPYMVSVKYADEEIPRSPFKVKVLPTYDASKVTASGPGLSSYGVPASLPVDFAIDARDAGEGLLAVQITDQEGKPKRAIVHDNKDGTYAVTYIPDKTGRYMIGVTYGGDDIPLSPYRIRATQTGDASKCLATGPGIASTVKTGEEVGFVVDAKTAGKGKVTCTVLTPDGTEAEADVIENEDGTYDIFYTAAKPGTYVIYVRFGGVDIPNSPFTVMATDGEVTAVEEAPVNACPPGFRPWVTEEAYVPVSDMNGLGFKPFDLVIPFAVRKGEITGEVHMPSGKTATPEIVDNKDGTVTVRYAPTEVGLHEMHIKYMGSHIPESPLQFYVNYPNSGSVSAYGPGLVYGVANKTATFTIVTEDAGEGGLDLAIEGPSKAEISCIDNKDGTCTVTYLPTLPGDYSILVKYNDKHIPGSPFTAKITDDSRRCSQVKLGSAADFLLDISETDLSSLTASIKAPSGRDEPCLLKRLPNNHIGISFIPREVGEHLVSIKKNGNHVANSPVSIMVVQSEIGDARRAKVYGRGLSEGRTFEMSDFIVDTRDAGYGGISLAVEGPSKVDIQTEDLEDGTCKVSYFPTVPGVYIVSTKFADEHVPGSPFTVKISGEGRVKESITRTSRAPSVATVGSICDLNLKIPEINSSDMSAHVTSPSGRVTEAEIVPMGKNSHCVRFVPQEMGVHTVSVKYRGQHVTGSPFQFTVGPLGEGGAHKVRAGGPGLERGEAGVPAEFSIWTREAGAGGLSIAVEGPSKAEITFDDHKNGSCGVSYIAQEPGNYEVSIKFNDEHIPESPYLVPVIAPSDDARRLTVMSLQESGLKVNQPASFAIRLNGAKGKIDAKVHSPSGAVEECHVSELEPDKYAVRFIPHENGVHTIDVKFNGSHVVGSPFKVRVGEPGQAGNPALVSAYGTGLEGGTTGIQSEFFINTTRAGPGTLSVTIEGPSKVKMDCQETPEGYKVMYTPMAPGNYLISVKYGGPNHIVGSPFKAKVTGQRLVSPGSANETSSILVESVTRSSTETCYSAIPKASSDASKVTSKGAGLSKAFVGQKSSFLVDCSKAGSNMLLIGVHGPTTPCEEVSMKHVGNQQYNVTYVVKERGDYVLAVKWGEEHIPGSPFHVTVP
# LARP4, Q71RC2, UniProt Q71RC2, whole entry: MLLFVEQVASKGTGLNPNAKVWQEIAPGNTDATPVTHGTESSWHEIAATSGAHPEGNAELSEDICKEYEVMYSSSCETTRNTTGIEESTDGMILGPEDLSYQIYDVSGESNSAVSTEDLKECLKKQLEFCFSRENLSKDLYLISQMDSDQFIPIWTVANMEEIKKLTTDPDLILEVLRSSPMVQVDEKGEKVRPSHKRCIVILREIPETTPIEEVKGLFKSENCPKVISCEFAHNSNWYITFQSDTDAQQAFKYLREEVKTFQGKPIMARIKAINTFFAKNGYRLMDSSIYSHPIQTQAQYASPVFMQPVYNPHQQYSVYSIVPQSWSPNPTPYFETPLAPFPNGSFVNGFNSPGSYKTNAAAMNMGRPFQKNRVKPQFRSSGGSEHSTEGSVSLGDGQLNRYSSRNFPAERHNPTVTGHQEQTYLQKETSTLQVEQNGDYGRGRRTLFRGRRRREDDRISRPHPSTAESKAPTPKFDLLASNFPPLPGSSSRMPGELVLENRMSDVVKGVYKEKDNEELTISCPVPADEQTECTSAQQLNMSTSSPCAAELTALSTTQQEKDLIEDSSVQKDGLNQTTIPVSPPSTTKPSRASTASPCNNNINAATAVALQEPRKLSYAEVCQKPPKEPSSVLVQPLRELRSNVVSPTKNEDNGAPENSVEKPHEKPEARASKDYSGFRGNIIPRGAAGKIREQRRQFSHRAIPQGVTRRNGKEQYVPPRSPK
# NDUFA10, O95299, UniProt O95299, whole entry: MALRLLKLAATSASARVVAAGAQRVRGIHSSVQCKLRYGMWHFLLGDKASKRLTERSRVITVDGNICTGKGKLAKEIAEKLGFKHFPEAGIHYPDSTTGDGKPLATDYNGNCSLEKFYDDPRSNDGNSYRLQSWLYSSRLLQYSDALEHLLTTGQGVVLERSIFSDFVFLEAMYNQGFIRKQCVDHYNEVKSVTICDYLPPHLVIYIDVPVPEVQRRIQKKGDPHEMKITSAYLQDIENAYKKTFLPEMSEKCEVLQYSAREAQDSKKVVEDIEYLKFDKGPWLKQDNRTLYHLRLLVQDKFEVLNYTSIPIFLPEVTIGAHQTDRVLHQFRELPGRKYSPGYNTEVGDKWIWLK
# PFN2, P35080, UniProt P35080, whole entry: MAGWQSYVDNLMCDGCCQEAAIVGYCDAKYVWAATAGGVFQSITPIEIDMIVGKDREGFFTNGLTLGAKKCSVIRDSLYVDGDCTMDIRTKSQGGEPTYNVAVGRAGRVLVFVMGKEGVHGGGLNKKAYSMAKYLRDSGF
# PGAM5, Q96HS1, UniProt Q96HS1, whole entry: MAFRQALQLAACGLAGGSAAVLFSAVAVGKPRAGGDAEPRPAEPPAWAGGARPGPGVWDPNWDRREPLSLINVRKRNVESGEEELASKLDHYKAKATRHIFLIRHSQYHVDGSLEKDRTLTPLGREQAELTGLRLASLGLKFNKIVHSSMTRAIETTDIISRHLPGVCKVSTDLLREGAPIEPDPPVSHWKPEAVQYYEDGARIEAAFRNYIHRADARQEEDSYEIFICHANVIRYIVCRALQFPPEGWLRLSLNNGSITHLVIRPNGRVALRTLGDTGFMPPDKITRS
# SMARCD1, Q96GM5, UniProt Q96GM5, whole entry: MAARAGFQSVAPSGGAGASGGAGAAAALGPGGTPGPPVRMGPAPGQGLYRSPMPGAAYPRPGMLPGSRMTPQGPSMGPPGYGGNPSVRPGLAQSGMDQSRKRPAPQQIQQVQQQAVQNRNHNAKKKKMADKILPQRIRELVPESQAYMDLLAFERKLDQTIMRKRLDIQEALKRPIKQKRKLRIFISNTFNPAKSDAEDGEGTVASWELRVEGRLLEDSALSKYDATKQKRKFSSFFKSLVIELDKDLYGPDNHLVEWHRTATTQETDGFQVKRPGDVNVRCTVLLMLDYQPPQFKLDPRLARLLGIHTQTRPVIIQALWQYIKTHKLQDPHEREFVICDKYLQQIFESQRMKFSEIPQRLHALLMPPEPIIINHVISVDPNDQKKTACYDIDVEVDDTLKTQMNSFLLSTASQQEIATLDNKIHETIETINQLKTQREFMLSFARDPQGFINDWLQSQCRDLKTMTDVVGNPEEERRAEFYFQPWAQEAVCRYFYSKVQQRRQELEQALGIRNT
# This is one part of the list. Only hits are listed; about a third recur on repeated control peptides.
# Experiments:
# Assay in all cases: PRISMA enrichment of interactor (LFQ) in peptide spot vs all other peptide spots (log2 fold change); higher = stronger / more specific binding of the interactor to the peptide
# [1] = biological target: AAR2, Q9Y312
# Description: (§1)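 PRISMA: 15-aa overlapping tiles (offset 8 aa) of 60 microproteins, plus SOS1/GLUT1 control peptides, were spot-synthesized on cellulose membranes in triplicate. Membranes were incubated with benzonase-treated HEK293T lysate, and bound proteins were identified by LC-MS/MS with LFQ. Enrichment is the log2 fold change of each protein in one spot versus all other spots. Only interactors passing the significance cutoff are listed.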
# [2] = biological target: ABCF1, Q8NE71
# Description: as §1
# [3] = biological target: ALDH3A2, P51648
# Description: as §1
# [4] = biological target: AP2A1, O95782
# Description: as §1
# [5] = biological target: CBLL1, Q75N03
# Description: as §1
# [6] = biological target: CCNT1, O60563
# Description: as §1
# [7] = biological target: CEP290, O15078
# Description: as §1
# [8] = biological target: CHEK1, O14757
# Description: as §1
# [9] = biological target: CLPX, O76031
# Description: as §1
# [10] = biological target: CNOT8, Q9UFF9
# Description: as §1
# [11] = biological target: COA4, Q9NYJ1
# Description: as §1
# [12] = biological target: COA6, Q5JTJ3
# Description: as §1
# [13] = biological target: COL4A3BP, Q9Y5P4
# Description: as §1
# [14] = biological target: CWC22, Q9HCG8
# Description: as §1
# [15] = biological target: DCTPP1, Q9H773
# Description: as §1
# [16] = biological target: DDX52, Q9Y2R4
# Description: as §1
# [17] = biological target: DHRS7B, Q6IAN0
# Description: as §1
# [18] = biological target: DHX37, Q8IY37
# Description: as §1
# [19] = biological target: ESF1, Q9H501
# Description: as §1
# [20] = biological target: FASTKD5, Q7L8L6
# Description: as §1
# [21] = biological target: FLNB, O75369
# Description: as §1
# [22] = biological target: HNRNPAB, Q99729
# Description: as §1
# [23] = biological target: IGF2BP2, Q9Y6M1
# Description: as §1
# [24] = biological target: JAGN1, Q8N5M9
# Description: as §1
# [25] = biological target: KMT2A, Q03164
# Description: as §1
# [26] = biological target: KRI1, Q8N9T8
# Description: as §1
# [27] = biological target: LARP4, Q71RC2
# Description: as §1
# [28] = biological target: MAIP1, Q8WWC4
# Description: as §1
# [29] = biological target: MARCKS, P29966
# Description: as §1
# [30] = biological target: MRPS15, P82914
# Description: as §1
# [31] = biological target: NDUFA10, O95299
# Description: as §1
# [32] = biological target: NUDC, Q9Y266
# Description: as §1
# [33] = biological target: PDCD5, O14737
# Description: as §1
# [34] = biological target: PEX3, P56589
# Description: as §1
# [35] = biological target: PFN2, P35080
# Description: as §1
# [36] = biological target: PGAM5, Q96HS1
# Description: as §1
# [37] = biological target: PHIP, Q8WWQ0
# Description: as §1
# [38] = biological target: PRRC2A, P48634
# Description: as §1
# [39] = biological target: PRRC2C, Q9Y520
# Description: as §1
# [40] = biological target: PTMS, P20962
# Description: as §1
# [41] = biological target: RAB6A, P20340
# Description: as §1
# [42] = biological target: RCN1, Q15293
# Description: as §1
# [43] = biological target: REEP5, Q00765
# Description: as §1
# [44] = biological target: RIF1, Q5UIP0
# Description: as §1
# [45] = biological target: ROCK1, Q13464
# Description: as §1
# [46] = biological target: SEMG1, P04279
# Description: as §1
# [47] = biological target: SEMG2, Q02383
# Description: as §1
# [48] = biological target: SF1, Q15637
# Description: as §1
# [49] = biological target: SFXN4, Q6P4A7
# Description: as §1
# [50] = biological target: SMARCD1, Q96GM5
# Description: as §1
# [51] = biological target: SMC2, O95347
# Description: as §1
# [52] = biological target: SPATA5, Q8NB90
# Description: as §1
# [53] = biological target: SUZ12, Q15022
# Description: as §1
# [54] = biological target: THRAP3, Q9Y2W1
# Description: as §1
# [55] = biological target: TSPYL2, Q9H2G4
# Description: as §1
# [56] = biological target: TXNDC12, O95881
# Description: as §1
# [57] = biological target: UBXN7, O94888
# Description: as §1
# [58] = biological target: UHRF1, Q96T88
# Description: as §1
# [59] = biological target: UQCRQ, O14949
# Description: as §1
# [60] = biological target: VPS35, Q96QK1
# Description: as §1
# [61] = biological target: ZFR, Q96KR1
# Description: as §1
# [62] = biological target: ZMPSTE24, O75844
# Description: as §1
# [63] = biological target: ZNF483, Q8TF39
# Description: as §1
binder,measurement,setting,value
RSTSMPSMAGTGHPL [RP11-140K17.3_2],PRISMA enrichment of interactor (log2),[1],4.15
same,PRISMA enrichment of interactor (log2),[2],5.57
same,PRISMA enrichment of interactor (log2),[3],4.52
same,PRISMA enrichment of interactor (log2),[4],5.32
same,PRISMA enrichment of interactor (log2),[5],5.1
same,PRISMA enrichment of interactor (log2),[6],4.41
same,PRISMA enrichment of interactor (log2),[7],5.23
same,PRISMA enrichment of interactor (log2),[8],5.38
same,PRISMA enrichment of interactor (log2),[9],5.84
same,PRISMA enrichment of interactor (log2),[10],3.88
same,PRISMA enrichment of interactor (log2),[11],4.63
same,PRISMA enrichment of interactor (log2),[12],4.17
same,PRISMA enrichment of interactor (log2),[13],5.3
same,PRISMA enrichment of interactor (log2),[14],5.88
same,PRISMA enrichment of interactor (log2),[15],4.29
same,PRISMA enrichment of interactor (log2),[16],5.25
same,PRISMA enrichment of interactor (log2),[17],5.12
same,PRISMA enrichment of interactor (log2),[18],5.6
same,PRISMA enrichment of interactor (log2),[19],4.48
same,PRISMA enrichment of interactor (log2),[20],4.09
same,PRISMA enrichment of interactor (log2),[21],4.76
same,PRISMA enrichment of interactor (log2),[22],7.65
same,PRISMA enrichment of interactor (log2),[23],4.55
same,PRISMA enrichment of interactor (log2),[24],7.87
same,PRISMA enrichment of interactor (log2),[25],3.85
same,PRISMA enrichment of interactor (log2),[26],4.78
same,PRISMA enrichment of interactor (log2),[27],5.31
same,PRISMA enrichment of interactor (log2),[28],4.73
same,PRISMA enrichment of interactor (log2),[29],4.34
same,PRISMA enrichment of interactor (log2),[30],7.94
same,PRISMA enrichment of interactor (log2),[31],4.81
same,PRISMA enrichment of interactor (log2),[32],5.4
same,PRISMA enrichment of interactor (log2),[33],4.48
same,PRISMA enrichment of interactor (log2),[34],5.73
same,PRISMA enrichment of interactor (log2),[35],7.8
same,PRISMA enrichment of interactor (log2),[36],5.37
same,PRISMA enrichment of interactor (log2),[37],7.56
same,PRISMA enrichment of interactor (log2),[38],4.48
same,PRISMA enrichment of interactor (log2),[39],8.74
same,PRISMA enrichment of interactor (log2),[40],9.63
same,PRISMA enrichment of interactor (log2),[41],6.7
same,PRISMA enrichment of interactor (log2),[42],5.66
same,PRISMA enrichment of interactor (log2),[43],4.44
same,PRISMA enrichment of interactor (log2),[44],5.06
same,PRISMA enrichment of interactor (log2),[45],4.39
same,PRISMA enrichment of interactor (log2),[46],5.16
same,PRISMA enrichment of interactor (log2),[47],4.15
same,PRISMA enrichment of interactor (log2),[48],4.36
same,PRISMA enrichment of interactor (log2),[49],10.1
same,PRISMA enrichment of interactor (log2),[50],7.51
same,PRISMA enrichment of interactor (log2),[51],5.33
same,PRISMA enrichment of interactor (log2),[52],4.38
same,PRISMA enrichment of interactor (log2),[53],5.96
same,PRISMA enrichment of interactor (log2),[54],5.92
same,PRISMA enrichment of interactor (log2),[55],7.21
same,PRISMA enrichment of interactor (log2),[56],5.03
same,PRISMA enrichment of interactor (log2),[57],4.09
same,PRISMA enrichment of interactor (log2),[58],4.69
same,PRISMA enrichment of interactor (log2),[59],5.43
same,PRISMA enrichment of interactor (log2),[60],12.5
same,PRISMA enrichment of interactor (log2),[61],4.56
same,PRISMA enrichment of interactor (log2),[62],4.45
same,PRISMA enrichment of interactor (log2),[63],5.28

# Given as tab-separated lines: entries from further up
binder	measurement	setting	value
RSTSMPSMAGTGHPL [RP11-140K17.3_2]	PRISMA enrichment of interactor (log2)	[50]	7.51
same	PRISMA enrichment of interactor (log2)	[51]	5.33

# Part of the list above, reformatted:
binder	measurement	setting	value
RSTSMPSMAGTGHPL [RP11-140K17.3_2]	PRISMA enrichment of interactor (log2)	[62]	4.45
same	PRISMA enrichment of interactor (log2)	[63]	5.28
